Test results as given in publication PMC12098569.

How the values were obtained:
[1] = target: T1, PEX3-VN173 expressed from pBiFC-PEX3-VN173 (UniProt P56589); experiment: split reporter; BiFC with VC155 and VN173 fusions co-transfected into Vero cells; 24 h; fixed with 4% paraformaldehyde, DAPI, fluorescence microscope
T1 sequence: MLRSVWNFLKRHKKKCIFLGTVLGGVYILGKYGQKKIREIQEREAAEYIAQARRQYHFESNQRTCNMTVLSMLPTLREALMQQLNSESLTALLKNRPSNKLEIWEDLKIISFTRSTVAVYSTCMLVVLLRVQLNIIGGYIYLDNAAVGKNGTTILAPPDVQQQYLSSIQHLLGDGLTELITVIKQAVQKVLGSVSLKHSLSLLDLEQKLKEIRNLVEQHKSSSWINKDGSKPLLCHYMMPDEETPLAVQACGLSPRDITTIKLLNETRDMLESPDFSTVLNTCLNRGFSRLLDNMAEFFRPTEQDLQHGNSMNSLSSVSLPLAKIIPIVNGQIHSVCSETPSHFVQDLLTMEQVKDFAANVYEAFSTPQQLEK

[2] = target: T2, TRAP1-VN173 expressed from pBiFC-TRAP1-VN173 (UniProt Q12931); experiment: as above
T2 sequence: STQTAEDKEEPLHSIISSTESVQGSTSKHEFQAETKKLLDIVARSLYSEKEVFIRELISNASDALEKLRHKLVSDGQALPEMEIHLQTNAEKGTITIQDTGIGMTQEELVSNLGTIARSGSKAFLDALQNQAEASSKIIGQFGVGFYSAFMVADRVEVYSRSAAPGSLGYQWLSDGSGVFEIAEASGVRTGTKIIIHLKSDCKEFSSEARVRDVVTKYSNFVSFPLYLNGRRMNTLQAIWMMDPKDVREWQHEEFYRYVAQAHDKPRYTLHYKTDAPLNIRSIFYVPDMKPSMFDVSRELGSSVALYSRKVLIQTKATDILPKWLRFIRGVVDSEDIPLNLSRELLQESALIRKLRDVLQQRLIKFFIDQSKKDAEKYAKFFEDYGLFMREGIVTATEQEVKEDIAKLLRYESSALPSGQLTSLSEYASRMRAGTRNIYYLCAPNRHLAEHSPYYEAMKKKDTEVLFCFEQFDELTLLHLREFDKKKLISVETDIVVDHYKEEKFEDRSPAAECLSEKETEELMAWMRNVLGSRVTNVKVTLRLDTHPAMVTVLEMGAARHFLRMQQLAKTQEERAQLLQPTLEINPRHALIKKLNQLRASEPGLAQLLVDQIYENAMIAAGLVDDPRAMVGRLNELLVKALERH

[3] = target: T3, HA-PEX3 expressed from pcDNA3.1-HA-PEX3 (UniProt P56589); experiment: co-IP; Vero cells co-transfected with pcDNA3.1-GST-GRA23 and pcDNA3.1-HA-PEX3 or pcDNA3.1-HA-TRAP1, 24 h; lysates with HA magnetic beads at 4°C overnight; Western blot
T3 sequence: T1 sequence

[4] = target: T4, HA-TRAP1 expressed from pcDNA3.1-HA-TRAP1 (UniProt Q12931); experiment: as above
T4 sequence: T2 sequence

Substance	binding [1]	binding [2]	binding [3]	binding [4]
GRA23-VC155 expressed from pBiFC-GRA23-VC155 (Toxoplasma gondii)	binds	binds	–	–
GST-GRA23 expressed from pcDNA3.1-GST-GRA23 (Toxoplasma gondii)	–	–	binds	binds

These are yes or no findings as the source states them, for the method shown. Binding seen in cells or lysates may run through a third protein. Binding can be weak; no strength is given. For some of these results: Where a sequence is shown, tags or fusion partners need not be part of it.
